Results from article PMC11967773.
Results are given in words; binding and its absence hold for the method and conditions named. In cells and extracts the contact can be indirect. A yes stands for co-enrichment or nearness to the bait. Other partners may have been found. Tags and fused reporters may be left off the sequences shown.

Protein sequences, listed by entry. Tags and fused reporters are not part of them.
UniProt Q08122: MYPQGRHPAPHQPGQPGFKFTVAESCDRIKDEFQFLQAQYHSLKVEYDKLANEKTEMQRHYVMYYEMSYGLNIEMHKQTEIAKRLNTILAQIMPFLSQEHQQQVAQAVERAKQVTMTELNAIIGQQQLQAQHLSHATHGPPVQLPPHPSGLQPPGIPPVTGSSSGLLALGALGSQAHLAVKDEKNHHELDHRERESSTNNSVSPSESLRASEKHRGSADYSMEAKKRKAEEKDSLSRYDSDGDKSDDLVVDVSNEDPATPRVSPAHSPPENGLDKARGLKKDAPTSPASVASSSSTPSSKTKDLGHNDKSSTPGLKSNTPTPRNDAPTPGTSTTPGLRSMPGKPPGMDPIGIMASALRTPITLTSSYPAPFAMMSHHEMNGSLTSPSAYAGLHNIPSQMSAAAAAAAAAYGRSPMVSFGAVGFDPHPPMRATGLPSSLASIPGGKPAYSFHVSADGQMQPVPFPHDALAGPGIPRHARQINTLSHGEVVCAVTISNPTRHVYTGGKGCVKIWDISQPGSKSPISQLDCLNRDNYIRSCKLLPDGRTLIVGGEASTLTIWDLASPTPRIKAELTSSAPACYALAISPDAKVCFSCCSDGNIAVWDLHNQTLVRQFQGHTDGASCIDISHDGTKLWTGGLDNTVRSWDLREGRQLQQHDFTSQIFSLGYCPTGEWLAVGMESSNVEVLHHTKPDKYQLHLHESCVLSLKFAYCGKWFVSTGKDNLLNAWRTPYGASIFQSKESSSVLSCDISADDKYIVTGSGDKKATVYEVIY

Biological target: T1, Flag-TRIM56 (tripartite motif 56), expressed from an adenovirus in SVF cells (UniProt Q9BRZ2)
T1 sequence: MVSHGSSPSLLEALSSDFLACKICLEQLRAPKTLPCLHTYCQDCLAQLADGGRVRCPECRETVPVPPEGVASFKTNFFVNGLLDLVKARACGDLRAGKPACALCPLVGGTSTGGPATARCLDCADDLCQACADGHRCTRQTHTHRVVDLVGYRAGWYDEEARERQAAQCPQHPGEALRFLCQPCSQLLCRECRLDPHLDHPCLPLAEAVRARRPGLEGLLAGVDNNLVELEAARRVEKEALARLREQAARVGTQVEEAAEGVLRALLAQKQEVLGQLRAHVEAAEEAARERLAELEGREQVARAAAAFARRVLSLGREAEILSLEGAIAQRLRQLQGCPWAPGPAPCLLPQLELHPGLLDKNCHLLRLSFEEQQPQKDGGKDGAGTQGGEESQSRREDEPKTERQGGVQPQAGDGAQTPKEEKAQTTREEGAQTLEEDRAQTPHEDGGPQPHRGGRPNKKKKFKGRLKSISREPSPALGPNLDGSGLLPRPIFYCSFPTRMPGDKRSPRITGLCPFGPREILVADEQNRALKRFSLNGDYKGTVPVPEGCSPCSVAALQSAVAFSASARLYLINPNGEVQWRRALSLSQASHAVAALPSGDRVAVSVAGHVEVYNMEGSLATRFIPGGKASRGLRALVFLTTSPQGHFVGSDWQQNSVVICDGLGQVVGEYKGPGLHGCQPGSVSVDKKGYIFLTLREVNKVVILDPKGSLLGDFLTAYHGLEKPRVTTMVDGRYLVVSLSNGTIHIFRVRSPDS
Assay: affinity purification with mass spectrometry; IP with Flag tag-specific antibodies from lysates of SVF cells infected with adenovirus Flag-TRIM56 or FLAG control for 24 h, then 20 µM MG132 for 4 h; timsTOF Pro, fold change greater than 4 over control

- binding: binds
Substance: transducin-like enhancer protein 3 (TLE3), endogenous mouse (from UniProt Q08122 1-772)
